# Measurements reported in PubChem BioAssay AID743121 (NCATS, 2013).
# Test: 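Genes whose silencing strengthens cell killing by camptothecin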 (primary screen)
# System: MDA-MB-231 cells, a human breast cancer line
# Reagents: single siRNA against human genes, 20 nM siRNA (0.8 pmol per well)
# Time to read-out: 120 h (drug added 48 h after transfection, read 72 h later)
# Conditions: camptothecin 20 nM (about EC30) for 72 h; vehicle 0.1% DMSO in parallel plates
# Detection: 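Cell viability by ATP luminescence (CellTiter-Glo) as % of non-targeting siRNA wells, and the log2 ratio of viability without drug over viability with camptothecin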
# Direction: log2 vehicle/camptothecin viability: higher = stronger sensitisation to camptothecin; viability with camptothecin: higher = more viable cells
# Active means: 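Active genes have an RSA gene-level p-value below 0.001, computed from the ratios of their separate siRNAs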
# Here is an unselected part of about 26,000 reagents. 167 of all reagents (0.63%) count as active. 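Calls are per gene from RSA p-values that are not deposited; an individual active-marked siRNA can sensitise only weakly.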 Entries without a mark were called inactive. Reagents against one gene are numbered here. Not all columns of the deposit are shown. No sequences are given here.
gene knocked down,reagent no.,log2 vehicle/camptothecin viability,viability with camptothecin (% of control)
TBC1D1 (GeneID 23216),1,-0.09,50.1
TBC1D1 (GeneID 23216),2,-0.299,107
TBC1D1 (GeneID 23216),3,0.281,94.8
TBC1D1 (GeneID 23216),4,0.0244,64.5
PSPH (GeneID 5723),1,-0.121,72.6
PSPH (GeneID 5723),2,-0.0854,92.2
PSPH (GeneID 5723),3,-0.0317,20.9
PSPH (GeneID 5723),4,-0.348,67.9
ADAM23 (GeneID 8745),1,-0.378,72.2
ADAM23 (GeneID 8745),2,-0.0949,96.1
ADAM23 (GeneID 8745),3,-0.185,90.6
ADAM23 (GeneID 8745),4,-0.123,95.8
POLR2M (GeneID 81488),1,-0.243,117
POLR2M (GeneID 81488),2,-0.14,112
POLR2M (GeneID 81488),3,-0.125,91.8
POLR2M (GeneID 81488),4,-0.361,65.2
POLR2M (GeneID 81488),5,-0.146,109
POLR2M (GeneID 81488),6,-0.203,119
POLR2M (GeneID 81488),7,-0.111,111
POLR2M (GeneID 81488),8,-0.643,115
ZNF596 (GeneID 169270),1,-0.304,95.4
ZNF596 (GeneID 169270),2,-0.226,20.3
ZNF596 (GeneID 169270),3,-0.161,109
ZNF596 (GeneID 169270),4,0.266,72.6
NEUROD4 (GeneID 58158),1,-0.361,90.5
NEUROD4 (GeneID 58158),2,-0.195,85.8
NEUROD4 (GeneID 58158),3,-0.265,67.4
NEUROD4 (GeneID 58158),4,-0.228,71.9
P2RY12 (GeneID 64805),1,-0.131,69.6
P2RY12 (GeneID 64805),2,-0.138,56
P2RY12 (GeneID 64805),3,-0.523,91.2
P2RY12 (GeneID 64805),4,-0.277,88.3
PCMTD1 (GeneID 115294),1,-0.114,110
PCMTD1 (GeneID 115294),2,-0.322,62.3
PCMTD1 (GeneID 115294),3,-0.269,106
PCMTD1 (GeneID 115294),4,-0.329,95.2
E2F1 (GeneID 1869),1,-0.422,64.7
E2F1 (GeneID 1869),2,-0.292,80
E2F1 (GeneID 1869),3,-3.73,84
E2F1 (GeneID 1869),4,-0.519,41.9
NCS1 (GeneID 23413),1,0.276,46.6
NCS1 (GeneID 23413),2,-0.0372,67.7
NCS1 (GeneID 23413),3,0.686,53.8
CCSER2 (GeneID 54462),1,-0.275,76.9
CCSER2 (GeneID 54462),2,-0.421,57.8
CCSER2 (GeneID 54462),3,0.125,59.9
CCSER2 (GeneID 54462),4,1.91,16.8
MAPK6 (GeneID 5597),1,-0.374,53.5
MAPK6 (GeneID 5597),2,0.244,81.6
MAPK6 (GeneID 5597),3,-0.182,56.1
MAPK6 (GeneID 5597),4,-0.604,88.1
MICB (GeneID 4277),1,-0.197,104
MICB (GeneID 4277),2,0.946,33.5
MICB (GeneID 4277),3,0.00196,86
MICB (GeneID 4277),4,-0.549,108
RNF122 (GeneID 79845),1,-0.15,97.2
RNF122 (GeneID 79845),2,-0.552,31.9
RNF122 (GeneID 79845),3,0.236,22.6
RNF122 (GeneID 79845),4,0.182,48.6
PPM1L (GeneID 151742),1,0.404,66
PPM1L (GeneID 151742),2,-0.456,104
PPM1L (GeneID 151742),3,-0.211,93.7
PPM1L (GeneID 151742),4,-0.00994,78.7
NSMF (GeneID 26012),1,0.235,44.2
NSMF (GeneID 26012),2,0.538,42.7
NSMF (GeneID 26012),3,-0.0662,85.9
NSMF (GeneID 26012),4,0.0151,30.5
PPP2R2B (GeneID 5521),1,-0.372,95.9
PPP2R2B (GeneID 5521),2,-0.26,110
PPP2R2B (GeneID 5521),3,-0.384,75.3
PPP2R2B (GeneID 5521),4,0.176,46.1

7 of these entries in another layout.
gene knocked down	reagent no.	log2 vehicle/camptothecin viability	viability with camptothecin (% of control)
E2F1 (GeneID 1869)	1	-0.422	64.7
E2F1 (GeneID 1869)	2	-0.292	80
E2F1 (GeneID 1869)	3	-3.73	84
E2F1 (GeneID 1869)	4	-0.519	41.9
NCS1 (GeneID 23413)	1	0.276	46.6
NCS1 (GeneID 23413)	2	-0.0372	67.7
NCS1 (GeneID 23413)	3	0.686	53.8
